# Results reported in paper PMC7819943, “Rice protein-binding microarrays: a tool to detect cis-acting elements near promoter regions in rice”.
# By UniProt entry, the sequences of proteins in these tests, tags left out.
# UniProt Q0JBA9, entry or part of it: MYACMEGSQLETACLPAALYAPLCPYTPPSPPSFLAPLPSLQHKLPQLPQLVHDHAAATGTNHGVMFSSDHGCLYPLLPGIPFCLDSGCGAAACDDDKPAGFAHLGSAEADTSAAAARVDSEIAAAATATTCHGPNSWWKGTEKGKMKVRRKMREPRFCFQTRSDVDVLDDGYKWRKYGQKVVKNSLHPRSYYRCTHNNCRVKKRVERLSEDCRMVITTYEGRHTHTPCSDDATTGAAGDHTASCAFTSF
# The other results are listed elsewhere or left out.
# Target: OsWRKY34 (Oryza sativa, UniProt Q0JBA9 1-250)
# Assay: protein-binding microarray (RPBM); PBS, 2% BSA, 51.3 ng/ul salmon testes DNA, 50 uM zinc acetate, 200 nM TF, 25 C, 1 h; high values mean tight binding
# Conditions: protein: recombinant; tags: N-terminal polyhistidine and DsRed monomer fusion (pET32a); label: CyDye5-dUTP incorporated in the synthesized complementary strand; 3' TTTTT single-stranded linker to array surface; dsDNA, one strand shown
# Method in brief: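 An Axon 4000B scanner gave the binding signal as per-feature fluorescence intensity in arbitrary units. This followed washing of a custom Agilent array that had been incubated for 1 h at 25 °C with 200 nM protein in PBS, 2% BSA, salmon testes DNA and 50 µM zinc acetate. The proteins were transcription factors fused at the N-terminus to polyhistidine and DsRed, expressed in E. coli BL21-CodonPlus and purified on Ni–NTA.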
row,Sequence,binding signal
1,CTCGCTGTCTTTCTCTATCTAGCGGGTCGCGGTGAGTCGTCGGAGTCACCTAGTGCAG,9420 fluorescence intensity (a.u.)
2,GCCATCCATCCATTCCGCGTTTTCCCCGCCCACCGGTCAACGGAGTCACCTAGTGCAG,15800 fluorescence intensity (a.u.)
3,GAGCTGCCGTTTTCTGTGATCTCCGTTGCTCAATCTAGTCCGGAGTCACCTAGTGCAG,9590 fluorescence intensity (a.u.)
4,ATCGCCGCCGCCGACGTCGCCGACGCCATCGCCAACGTTCCGGAGTCACCTAGTGCAG,8550 fluorescence intensity (a.u.)
5,CCACCACGACGGCGTCCAGCGGCGTCGCGGCGCTGGCGGTCGGAGTCACCTAGTGCAG,9960 fluorescence intensity (a.u.)
6,GGATCTCCTTCTCGTGCTCTCTCTCTCTCTCTCTCTCTCTCGGAGTCACCTAGTGCAG,11100 fluorescence intensity (a.u.)
7,CCCACCCCTGCTCGCCCGCGCACCCAGCTCACCAGCGCACCGGAGTCACCTAGTGCAG,12300 fluorescence intensity (a.u.)
8,CGTGTAGCCATAAGTTTCCGTGTCCAACATTTGACCATCTCGGAGTCACCTAGTGCAG,10700 fluorescence intensity (a.u.)
9,TTGCCTTACAAAAGGATATAGAGTTCCATCGTTTCGTTTCCGGAGTCACCTAGTGCAG,9200 fluorescence intensity (a.u.)
10,GCCCCACCCATCTCCACACTTTCCTCATCCCACGGCGCCCCGGAGTCACCTAGTGCAG,8740 fluorescence intensity (a.u.)
11,CGATCTGACTCTTAACTGCAGCTCATGATTTTCTATATATCGGAGTCACCTAGTGCAG,10300 fluorescence intensity (a.u.)
12,CCAATAACACAGGGCATCATTTTTTCGCTTATGCTTATATCGGAGTCACCTAGTGCAG,9170 fluorescence intensity (a.u.)
13,TGGGACTCTCAAATTGGTTCCTGATGCTAGAGTTTGCTTACGGAGTCACCTAGTGCAG,8370 fluorescence intensity (a.u.)
14,CCATCCCGCCGCCACCGCCGCCGCCGCCGCCTCATCCTCCCGGAGTCACCTAGTGCAG,9300 fluorescence intensity (a.u.)
15,CTACTAGGGCCTCTAGCTCACCTCTCTTCGCTTCCAATTTCGGAGTCACCTAGTGCAG,14600 fluorescence intensity (a.u.)
16,CGTTGTCACTCGGCTCGTTTTTTTATCAGTTATTCCTAAACGGAGTCACCTAGTGCAG,8380 fluorescence intensity (a.u.)
17,TCACACCCCATCTATGTTGTCGCTCCACATAGGCTAGGCCCGGAGTCACCTAGTGCAG,8350 fluorescence intensity (a.u.)
18,ACGTTGTGTTTCGCCGCTGGCTCTTAGTGCGTGGGTATACCGGAGTCACCTAGTGCAG,8770 fluorescence intensity (a.u.)
19,GTTATGTTAGGTCTGGTTTTTTGGCTGTAGCAGCAGCAGTCGGAGTCACCTAGTGCAG,8510 fluorescence intensity (a.u.)
20,CTCACACTACCATTAACGTACTCCCTCATTCCAACCAACGCGGAGTCACCTAGTGCAG,9740 fluorescence intensity (a.u.)
21,GCGCATATTTGATATGTTCATGTTTTACTGCTTAGTTTACCGGAGTCACCTAGTGCAG,8790 fluorescence intensity (a.u.)

row,Sequence,binding signal
1,AACCACGCCCACCGCCCACCACGGTGGCTCGCCGGCGCCGCGGAGTCACCTAGTGCAG,9150 fluorescence intensity (a.u.)
2,AAAGAGAGAGGTGGTTTTGTTTTGTTTGTCCGGTAATGGCCGGAGTCACCTAGTGCAG,8120 fluorescence intensity (a.u.)
3,TCCATCCGCGCATTAATCCCATTTCTGCTCGCAAGTTAATCGGAGTCACCTAGTGCAG,9930 fluorescence intensity (a.u.)
4,CACGTGCCCAACTAACACATACATTCATCATATATACACCCGGAGTCACCTAGTGCAG,8830 fluorescence intensity (a.u.)
5,CGGTAGGGCCCACATGTCTGTCGGGGTGGGCGGTGGTGGTCGGAGTCACCTAGTGCAG,10800 fluorescence intensity (a.u.)
6,ATCCATGTCCATCCATCTATCCGTCCGTCCGTCCATCCATCGGAGTCACCTAGTGCAG,11300 fluorescence intensity (a.u.)
7,TTTTCTGCCCGTATACCAATCACCCTTGAGCTCCCACTCACGGAGTCACCTAGTGCAG,10400 fluorescence intensity (a.u.)
8,ACGCCGAGTCGCGCCAACCATCCACTCCCTGTCGCGCGCCCGGAGTCACCTAGTGCAG,8400 fluorescence intensity (a.u.)
9,AGAGGGTGGCTTATGCAACGCATACTCTATTGTCCTGTGCCGGAGTCACCTAGTGCAG,9340 fluorescence intensity (a.u.)
10,CAAGATGCTACATTAAACCCGATTCAATCTTTCGCTATTTCGGAGTCACCTAGTGCAG,8770 fluorescence intensity (a.u.)
11,CGTTTGTACTGTGTGGTGGTTGGTGATTGGGTGTTGTGCCCGGAGTCACCTAGTGCAG,13900 fluorescence intensity (a.u.)
12,GTTTCATCTGTGCTTCGACTGTAATAGATCGTTTCTGTGCCGGAGTCACCTAGTGCAG,8380 fluorescence intensity (a.u.)
13,ACGATAATAGTGGGTGATATAATATTGTCTTGGCCAAAAACGGAGTCACCTAGTGCAG,8100 fluorescence intensity (a.u.)
14,AAATATTTGACGCCGTTGACTTTCTTAAACATGTTTAACTCGGAGTCACCTAGTGCAG,15700 fluorescence intensity (a.u.)
15,CTTGGACTAGTACTGGACTCTACTTCTACTGCTGCTGCGCCGGAGTCACCTAGTGCAG,8030 fluorescence intensity (a.u.)
16,TCATCTCGCATTTCACTATTTGCCACTCGTGTGTCTATGACGGAGTCACCTAGTGCAG,12200 fluorescence intensity (a.u.)
17,ACAAACCATCGTATACACGACGACTCCACCTATCTCGGCACGGAGTCACCTAGTGCAG,8430 fluorescence intensity (a.u.)
18,ACGTGCTCAGTCATCATCCTCATGGCCGTTCCTTGCCGAACGGAGTCACCTAGTGCAG,8060 fluorescence intensity (a.u.)
19,CTGCCACCATTCGCCATTGGATCCTGAATTTGATTCCAACCGGAGTCACCTAGTGCAG,11800 fluorescence intensity (a.u.)
20,GCGCCGTCGTTCGTCCCTGCTGCTTCCGCCGTCGCATCCCCGGAGTCACCTAGTGCAG,8900 fluorescence intensity (a.u.)
21,TGATTGTCAAGGTTTTCTTTTGATTGTTCTCACTCTATTCCGGAGTCACCTAGTGCAG,8200 fluorescence intensity (a.u.)

# Quoted from the listing.
# GCGCCGTCGTTCGTCCCTGCTGCTTCCGCCGTCGCATCCCCGGAGTCACCTAGTGCAG – binding signal: 8900 fluorescence intensity (a.u.)
# ACGATAATAGTGGGTGATATAATATTGTCTTGGCCAAAAACGGAGTCACCTAGTGCAG – binding signal: 8100 fluorescence intensity (a.u.)
